Measured values: patent US12049475B2, “Bisphosphonate drug conjugates” (BRISE PHARMACEUTICALS CO., LTD., priority 2018, dated 2024)

Test system: CED mice
Test: CED mouse model, 8-week treatment: μCT of tibia and fracture incidence
Details: 100 μg/kg per week, 8 weeks, tibia cross-sections
Experimental: All transgenic animals used in this study are as described in the Animals section. […] During cell counting, microCT analysis and histological staining analysis, all manual quantification is performed in a blind manner to eliminate observer bias. Animals were randomly assigned to groups for experiments in CED animal studies.
Mice: According to Tang et al., Nat Med. 15:757-765 (2009), a mutation in the coding area of the TGF-β1 latency protein was generated in mice, and the active form of TGF-β1 was secreted by osteoblasts. […] All mice received the intraperitoneal injections once a week for 2 months, beginning at 1 month of age until sacrifice at 3 months of age. The tibias of the mice were collected and analyzed.
Microcomputed tomography analysis: Tibia collected from mice were dissected to remove soft tissue, fixed overnight in 70% ethanol, and analyzed with a high-resolution microcomputed tomography (μCT) imaging system (MicroCT40; Scanco Medical AG, Basserdorf, Switzerland). The scanner was set at a voltage of 55 kVp and a current of 109 μA. The resulting two-dimensional longitude-sectional images or three-dimensional whole-bone images are shown in gray scale. Three-dimensional structural parameters, total bone volume per tissue volume, cortical bone volume, cortical bone thickness, and cortical bone porosity were given.

SMILES: NCCCC(O)(P(=O)(O)O)P(=O)(O)O [ALN, 4-amino-1-hydroxybutylidene-1,1-bisphosphonic acid monosodium trihydrate, reference compound]
- total BV/TV distribution: unregulated states
